{"sequences": {"note": "Amino acid sequences for entries named in this document (tags omitted). A change or cut given only in a name is not applied to a line headed by its entry.", "UniProt P28702": "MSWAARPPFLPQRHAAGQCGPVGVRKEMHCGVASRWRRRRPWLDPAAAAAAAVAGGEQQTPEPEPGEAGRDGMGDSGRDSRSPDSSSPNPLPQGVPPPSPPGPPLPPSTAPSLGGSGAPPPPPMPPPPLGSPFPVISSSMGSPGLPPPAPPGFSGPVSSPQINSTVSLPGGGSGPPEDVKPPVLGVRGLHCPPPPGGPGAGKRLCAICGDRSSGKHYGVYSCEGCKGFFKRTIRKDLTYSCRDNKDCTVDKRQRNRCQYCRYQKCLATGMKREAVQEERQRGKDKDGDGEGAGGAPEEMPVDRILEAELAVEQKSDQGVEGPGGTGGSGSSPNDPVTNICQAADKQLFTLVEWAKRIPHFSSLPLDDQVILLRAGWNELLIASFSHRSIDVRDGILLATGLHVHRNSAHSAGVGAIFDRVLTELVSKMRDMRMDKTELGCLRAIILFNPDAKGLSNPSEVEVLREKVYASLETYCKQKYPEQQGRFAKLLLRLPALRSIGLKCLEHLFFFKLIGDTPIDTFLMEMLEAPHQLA"}, "source": "PubChem BioAssay AID2284354", "about": "(EPA ToxCast)", "molecular_target": "human Retinoid X Receptor beta (RXRb), RXRB (gene 6257) (UniProt P28702)", "experiment": "ATG_hRXRb_EcoTox2: Attagene TRANS-FACTORIAL EcoTox-2 HepG2 Assay for human Retinoid X Receptor beta (RXRb)", "protocol": "ATG_EcoTox2 is a cell-based, multiplexed assay created by modifying the existing Attagene TRANS-FACTORIAL system to include a panel of nuclear receptors from some or all the following species: human (Homo sapiens), african clawed frog (Xenopus laevis), rainbow trout (Oncorhynchus mykiss), japanese medaka (Oryzias latipes), and zebrafish (Danio rerio). The ECOTOX2-FACTORIAL format uses HepG2, a human liver cell line, with measurements taken at 24 hours after chemical dosing in a 24-well plate. ATG_hRXRb_EcoTox2 is one of 29 assay components calculated in the ATG_EcoTox2 assay. It is designed to make measurements of mRNA induction, a form of inducible reporter, as detected with fluorescence intensity signals by Reverse transcription polymerase chain reaction (RT-PCR) and Capillary electrophoresis technology.The assay endpoint ATG_hRXRb_EcoTox2 was analyzed in the positive analysis fitting direction relative to DMSO as the negative control and baseline of activity. Using a type of inducible reporter, measures of mRNA for gain-of-signal activity can be used to understand the reporter gene at the transcription factor-level as they relate to the gene RXRb. Furthermore, this assay endpoint can be referred to as a primary readout, because this assay has produced multiple assay endpoints where this one serves a reporter gene function. […]", "note": "All entries are inconclusive by the source's own rule. Clear calls are listed elsewhere. Rule for the calls: active = hit-call score of the fitted dose curve at least 0.9, where 1 is the maximum; inconclusive = response in the unintended direction; inactive = score below 0.9. Where the call is inconclusive, the potency comes from a doubtful curve fit."}
{"smiles": "O=P(Oc1ccccc1)(Oc1ccccc1)Oc1ccccc1", "values": [{"measurement": "AC50", "result": "inconclusive: 91.2 µM"}]}
